Data as given in patent publication US11884627B2, “Compounds and compositions for treating conditions associated with LPA receptor activity” (Lhotse Bio, Inc., priority 2022, dated 2024).
pIC50: −log10 of the molar value. The match of structure and compound is tentative.

The chains behind the UniProt entries cited, without tags or fusion partners.
UniProt Q92633, whole entry: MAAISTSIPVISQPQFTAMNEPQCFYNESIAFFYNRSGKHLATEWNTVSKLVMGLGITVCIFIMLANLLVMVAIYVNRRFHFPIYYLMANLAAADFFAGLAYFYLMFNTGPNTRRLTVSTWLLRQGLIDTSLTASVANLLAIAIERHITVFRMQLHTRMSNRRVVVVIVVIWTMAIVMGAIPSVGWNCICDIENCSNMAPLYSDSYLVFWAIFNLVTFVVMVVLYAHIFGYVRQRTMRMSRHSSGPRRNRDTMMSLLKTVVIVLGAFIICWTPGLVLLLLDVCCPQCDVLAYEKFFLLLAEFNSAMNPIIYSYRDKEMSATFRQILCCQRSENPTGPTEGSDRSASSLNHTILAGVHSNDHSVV

Tests used:
human LPA1 [1] = target: T1, human LPA1 (Homo sapiens, UniProt Q92633); test: In vitro LPA1 calcium flux antagonist assay - Bioduro protocol; conditions: CHO-K1 cells overexpressing human LPA1 and G15a, LPA challenge at EC80
Description: In Vitro LPA1 Calcium Flux Antagonist Assay—Bioduro Protocol
CHO-K1 cells overexpressing human LPA1 and G15a were seeded at a total volume of 20 μL (15000 cells/well) into Matrigel pre-coated 384-well plates (corning −3764) and incubated at 37° C. After overnight incubation, the cells were serum starved for 4 h. Assays were performed in dye loading buffer containing 1× Fluo-8 AM (AAT Bioquest, 21080) and 2.5 mM probenecid (Thermo Fisher, 36400) in HBSS/20 mM Hepes. After cell starvation, the medium was replaced with 20 μL of dye loading buffer and incubated at 37° C., for 30 min. Then 5 μL of 5× compound titrated in dye loading buffer was added to the cells and incubated for 30 min followed by LPA challenge at EC80. Calcium mobilization was measured on a FLIPR Tetra (MSD). For LPA EC80 determination, starved cells were incubated with 20 μL of dye loading buffer for 1 h, then 5 μL of 5×LPA titrated in dye loading buffer was added to the cells. Calcium signals induced by LPA was monitors on a FLIPR.
Percentage inhibition is calculated using the following formula: % Inhibition=100%×(1−(mean RFU of test sample−mean RFU of DMSO)/(mean RFU of LPA control−mean RFU of DMSO)).
Table B3 and Table B4 show the biological activity of compounds in in vitro LPA1 Calcium flux antagonist assay—Bioduro protocol.

human LPA1 [2] = target: T1, human LPA1; test: In vitro LPA1 functional antagonist assay (calcium mobilization, FLIPR); conditions: Table B2; CHO-K1 cells overexpressing human LPA1, Oleoyl LPA challenge at EC80
Description: In Vitro LPA1 Functional Antagonist Assay
CHO-K1 cells overexpressing human LPA1 were seeded in a total volume of 20 μL into black-walled, clear-bottom. Poly-D-lysine coated 384-well microplates and incubated at 37° C., for the appropriate time prior to testing. Assays were performed in 1× Dye Loading Buffer consisting of 1× Dye, 1× Additive A and 2.5 mM Probenecid in HBSS/20 mM Hepes. Probenicid was prepared fresh. Cells were loaded with dye prior to testing. Media was aspirated from cells and replaced with 20 μL Dye Loading Buffer. Cells were incubated for 30-60 minutes at 37° C. After dye loading, cells were removed from the incubator and 10 μL 3× test compound was added. […] Compound antagonist activity was measured on a FLIPR Tetra (MSD). Calcium mobilization was monitored for 2 minutes and 10 μL Oleoyl LPA in HBSS/20 mM Hepes was added to the cells 5 seconds into the assay. […] LPA agonist activity was measured on a FLIPR Tetra (MSD). Calcium mobilization was monitored for 2 minutes and 10 μL 4×LPA sample in HBSS/20 mM Hepes was added to the cells 5 seconds into the assay. Compound activity was analyzed using CBIS data analysis suite (ChemInnovation, CA). Percentage inhibition is calculated using the following formula: % Inhibition=100%×(1−(mean RFU of test sample−mean RFU of vehicle control)/(mean RFU of LPA control−mean RFU of vehicle control)). […]

[3] = calcium mobilization on FLIPR Tetra
[4] = read-out: Activity (IC50 class), Table B3

SMILES	pIC50 (human LPA1 [1]; [3])	pIC50 (human LPA1 [1]; [4])	pIC50 (human LPA1 [2])
COc1cc(-c2ccc(OC3(C(=O)O)CCOCC3)cc2CCC2CCOC2)c(F)c(OC)c1C (single isomer, unassigned)	7.09	> 7.00	–
COc1cc(-c2ccc(CC3(C(=O)O)CCOCC3)cc2COC2CCCC2)c(Cl)c(OC)n1	5.62	< 6.00	–
CCCCOCc1cc(NC2(C(=O)O)CCC2)ccc1-c1cc(OC)cc(OCC)c1F	7.76	> 7.00	–
CCOc1cc(OC)cc(-c2ccc(OC3(C(=O)O)CCOCC3)cc2COC2CC2)c1F	6.84	6.00 to 7.00	–
COc1cc(C)cc(-c2c(C)cc(NC3(C(=O)O)CCOCC3)cc2COC2CCCC2)c1	6.18	6.00 to 7.00	–
COc1cc(-c2ccc(OC3(C(=O)O)CCOCC3)cc2CCC2CCOC2)c(Cl)c(OC)n1 (single isomer, unassigned) [268]	6.19	6.00 to 7.00	–
COc1cc(-c2ccc(NC3(C(=O)O)CCCCC3)cc2COC2CC2)c(F)c(OC)c1C	7.32	> 7.00	–
COc1cc(-c2ccc(NCCC(=O)O)cc2CCC2(C)Oc3ccccc3O2)cc(OC)c1C	6.61	6.00 to 7.00	–
COc1cc(-c2ccc(OC3(C(=O)O)CCOCC3)cc2CCC2CCOC2)c(Cl)c(OC)n1 (single isomer, unassigned) [269]	6.59	6.00 to 7.00	–

The remaining lines, values ahead:

pIC50 (human LPA1 [1]; [3])	pIC50 (human LPA1 [1]; [4])	pIC50 (human LPA1 [2])	SMILES
7.19	> 7.00	–	O=C(O)C1(Nc2ccc(-c3cncc(OC4CC4)c3C(F)F)c(COC3CC3)c2)CCOCC1
8.71	> 7.00	–	CCOc1cccc(-c2ccc(NC3(C(=O)O)CCOCC3)cc2CCC2CC2)c1C
7.57	> 7.00	–	COc1c(C#N)ccc(-c2ccc(NC3(C(=O)O)CCOCC3)cc2COC2CCCC2)c1C
7.30	> 7.00	–	COc1cc(-c2ccc(NC3(C(=O)O)CCOCC3)cc2COC2CCCC2)c(F)c(OC)n1
7.59	> 7.00	8.05	COc1cc(-c2ccc(NC3(C(=O)O)CCOCC3)cc2COC2CCCC2)c(C)c(OC)n1
